# PubChem BioAssay AID686937 – Drosophila RNAi Screening Center, 2013
# Test: 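Genes whose loss weakens secretory pathway function in fly cells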 (primary screen)
# System: Drosophila S2 cells expressing secreted horseradish peroxidase
# Knock-down reagent: long dsRNA against Drosophila genes
# Timing: about 5.5 days (5 days dsRNA, then 12 h reporter induction)
# Challenge: reporter expression induced after 5 days of dsRNA, read 12 h later; inducer not stated
# Measured: 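After 5 days of dsRNA and 12 h of reporter induction, medium peroxidase read by chemiluminescence and scored as per-plate z-score; higher values mean more reporter released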
# Direction: z-score: higher = more reporter secreted into medium
# The deposit covers about 23,000 reagents; this is a random part of those that have a named target and a result. 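Reduced-secretion tags in replicate 1 do not always agree with the z-scores; no criterion for assigning the tags was given.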 Reagents against one gene are numbered here. A plus sign joins genes that one reagent is predicted to hit. Not stated in the record: the amount of reagent.
gene knocked down,reagent no.,"z-score, replicate 1","z-score, replicate 2","z-score, replicate 3","z-score, replicate 4","phenotype, replicate 1"
CG31021,1,-0.76,-0.16,,,
DCTN4-p62,1,0.49,0.38,,,
Rcd2,1,0.16,-0.48,,,
Fer3HCH,1,0.24,0.24,,,
gdrd,1,-0.14,0.29,,,
HtrA2,1,0.07,0.36,,,
CCAP,1,0.33,0.23,,,
FLASH,1,0.84,0.51,,,
CG14818,1,0.06,0.3,,,
w-cup,1,0.1,0.36,,,
CG10702,1,0.31,0.28,,,
CG3386,1,0.39,0.35,,,
CG13667,1,0.24,0.4,,,
CG5359,1,0.51,0.84,,,
CG10874,1,0.27,-0.27,,,
CG13724,1,0,-0.06,,,
Rgk1,1,-0.26,0.49,,,
Rgk1,2,-0.65,0.14,,,
Rgk1,3,0.52,0.35,,,
Rgk1,4,-0.95,0.08,,,
Rgk1,5,-2.71,-1.88,,,reduced secretion
CG33125,1,0.34,0.23,,,
CycH,1,-0.2,-0.47,,,
CycH,2,-0.18,0.38,,,
Oatp33Eb,1,0.29,0.17,,,
CG18641,1,0.12,0.44,,,
CG13028,1,0.04,0.25,,,
CG34444,1,0.24,0.4,,,
CG8671,1,-0.02,0.2,,,
CG8671,2,0.25,0.33,,,
CG10041,1,0.57,0.48,,,
Sox21a,1,0.2,0.34,,,
CG14891,1,0.33,0.33,,,
CG13689,1,0.32,-0.03,,,
CG30411,1,0.15,,,,
Pcyt1,1,0.46,0.46,,,
CG42591,1,0.3,0.42,,,
cN-IIIB,1,0.42,0.32,,,
AANATL6,1,0.04,0.22,,,
Prps,1,-1.54,-0.7,,,reduced secretion
Prps,2,-1.83,-0.61,,,
Prps,3,-0.84,-0.59,,,
TpnC47D,1,0.33,0.23,,,
CG12236,1,-4.18,-1.79,,,reduced secretion
CG12236,2,0.35,0.39,,,
CG11109,1,0.37,0.51,,,
Lip3,1,0.32,0.51,-0.12,0.32,
Rab3-GAP,1,0.29,0.34,,,
ms(2)34Fe,1,-0.17,0.29,,,
dob,1,0.2,0.48,,,
Mtl,1,-0.04,0.31,,,
Tsp42Ef,1,-8.36,0.08,,,reduced secretion
CG3603,1,0.25,0.31,,,
CG30485,1,0.31,0.33,,,
Mef2,1,0.39,0.37,,,
CG31457,1,-0.62,-0.35,,,
TwdlT,1,0.37,0.38,,,
TwdlT,2,-0.82,-0.38,,,reduced secretion
CG14132,1,-0.06,-0.13,,,
CG17362,1,0.05,0.21,,,
PGS1,1,0.26,0.58,,,
CG5662,1,-1.75,-0.07,,,
CG10969,1,-0.77,-0.37,,,
CG11247,1,-4.29,0.35,0.36,-1.18,
CG11247,2,0.56,0.23,,,
RNaseP:RNA,1,-0.66,0.05,,,
CG9393,1,0.53,0.51,,,
Rfk,1,0.61,0.65,,,
CG32115,1,1.7,0.47,,,
sNPF-R,1,0.36,0.5,,,
tutl,1,0.49,0.42,,,
tutl,2,0.41,0.41,,,
tutl,3,0.12,0.01,,,
CG42680,1,0.18,-0.01,,,
CG5756,1,0.17,0.45,,,
CG43397 + CG12902,1,0.13,0.14,,,
nht,1,0.16,0.51,0.3,0.19,
eIF2Bgamma,1,-0.17,-1.48,,,
CG6171,1,0.32,0.33,,,
fs(1)M3,1,0.46,0.41,,,
Nlp,1,-0.38,0.01,,,
Polr2A,1,-5.59,-4.79,,,reduced secretion
CG1888,1,0.32,0.29,,,
CG31693,1,-0.04,0.44,,,
Acsx3,1,0.22,0.2,,,
clt,1,-0.37,0.27,,,
CG14718,1,0.58,0.46,,,
Naa20A,1,0.22,0.5,,,
Pig1,1,-0.32,0,,,
mtgo,1,0.12,0.53,0.24,0.14,reduced secretion
mtgo,2,-2.58,-0.37,-1.22,0.55,
mtgo,3,-0.34,0.13,,,
mtgo,4,0.01,0.13,,,
mtgo,5,-0.36,-1.24,,,reduced secretion
Paics,1,0.27,0.17,,,
CG33453,1,0.33,0.42,,,
UBL3,1,0.44,0.24,,,
CG30037,1,0.23,0.3,,,
TBC1D23,1,0.16,0.22,,,
eIF4G1,1,-1.31,-1.34,,,
Dp1,1,0.33,0.53,,,
Cyp304a1,1,0.47,0.07,,,
jet,1,0.26,0.05,,,
CG18302,1,0.14,-0.06,,,

An excerpt of the results above, for reference:
gene knocked down,reagent no.,"z-score, replicate 1","z-score, replicate 2","z-score, replicate 3","z-score, replicate 4","phenotype, replicate 1"
tutl,3,0.12,0.01,,,
CG42680,1,0.18,-0.01,,,
CG5756,1,0.17,0.45,,,
CG43397 + CG12902,1,0.13,0.14,,,
nht,1,0.16,0.51,0.3,0.19,
eIF2Bgamma,1,-0.17,-1.48,,,
CG6171,1,0.32,0.33,,,
